B1: wt TaLcc1: Wild type laccase purified from Thielavia arenaria ALKO4197 culture supernatant (protein)
chain: MKSWAAAVALMVGILSPHAAAAPPANPVQRDMLQVLEARQSGPTCNTPSNRACWTNGFDINTDYEVSTPNTGRTVAYQLTLTEKENWIGPDGVLKNVVMLVNDKIIGPTIRANWGDNIEVTVINNLKTNGTSMHWHGLRQLGNVFNDGANGVTECPIPPKGGRKTYKFRATQYGTSWYHSHFSAQYGNGVVGTIQIDGPASLPYDIDLGVFPLMDYYYRSADELVHFTQSNGAPPSDNVLFNGTARHPETGAGQWYNVTLTPGKRHRLRIINTSTDNHFQVSLVGHNMTVIATDMVPVNAFTVSSLFLAVGQRYDVTIDANSPVGNYWFNVTFGDGLCGSSNNKFPAAIFRYQGAPATLPTDQGLPVPNHMCLDNLNLTPVVTRSAPVNNFVKRPSNTLGVTLDIGGTPLFVWKVNGSAINVDWGKPILDYVMSGNTSYPVSDNIVQVDAVDQWTYWLIENDPTNPIVSLPHPMHLHGHDFLVLGRSPDELPSAGVRHIFDPAKDLPRLKGNNPVRRDVTMLPAGGWLLLAFKTDNPGAWLFHCHIAWHVSGGLSVDFLERPNDLRTQLNSNAKRADRDDFNRVCREWNAYWPTNPFPKIDSGLRHRFVEESEWMVR
modifications: Thielavia arenaria ALKO4197; (1)..(617) Deduced amino acid sequence of Thielavia arenaria ALKO4197 laccase 1 (Ta Lcc1)
notes: Wild type laccase purified from Thielavia arenaria ALKO4197 culture supernatant
B2: TaLcc1: Recombinant Thielavia arenaria ALKO4197 laccase 1 (SEQ ID NO: 12) produced in Trichoderma reesei strains RF5597/RF5598 (protein)
chain: B1 chain
modifications: Thielavia arenaria ALKO4197; (1)..(617) Deduced amino acid sequence of Thielavia arenaria ALKO4197 laccase 1 (Ta Lcc1)

What was measured:
[1] = Denim bleaching at different temperatures (Launder Ometer); details: denim bleaching application
Description: The test system and denim were as in Example 7, except that the conditions during the laccase and mediator treatment in Launder were 30 min, pH 6 and temperature 30-80° C. Also, the enzyme was inactivated by an alkaline treatment instead of raising the temperature in Launder as follows. After removing swatches from the containers they were soaked in warm water containing NaOH (pH 11.5) for 10 min and rinsed carefully with warm water. The swatches were dried half-dry in a tumbler and after that air dried. The bleaching effect was evaluated by measuring the colour as reflectance values as in Example 7.

[2] = pH optimum on guaiacol; type: biochemical; details: McIlvaine buffer, pH range 2.0-8.0

Molecule | temperature optimum in denim bleaching [1] | pH optimum on guaiacol [2] | pH optimum on guaiacol ([2]; listed as Thielavia laccase)
B1 | 60 °C | 6.0 | 5.5
B2 | 60-70 °C | 6.0 | 

— patent publication US7927849B2, “Laccase enzyme and use thereof” (AB Enzymes OY, priority 2004, dated 2011)
